Measured values published in patent US20150305372A1, “FEED INTAKE OF RUMINANTS USING GREEN FODDER FLAVORS” (BASF SE, priority 2014, published 2015).

Tested on: dairy cows having a high milk performance (German Holstein cattle)
Assay: Feeding study of trans-hex-2-enal and hexanal on feed intake, feed intake behavior, milk performance and milk composition of dairy cows
Assay type: in vivo
Details: 4.3 g/cow/day in TMR, LSQ means; for BFT (Back Fat Thickness): control 0.96; for MUN (milk-urea-nitrogen): control 239; for Body weight: control 670
Protocol: The purpose of the present study is to establish whether 4.3 g/cow/day of trans-hex-2-enal or 4.3 g/cow/day of hexanal affect the DMI value, the milk performance, the milk composition or the feed intake behavior (duration, frequency, etc.) of dairy cows.
The start of the study was calendar week 18 of the experimental year and the end of the study was calendar week 24 of the same year. The feed consumption was determined by means of feed troughs with electronic weight determination, produced by Insentec B.V. (Marknesse, Netherlands). The system identifies each animal by scanning the respective transponder on the neck band of the respective cow using a light barrier. After identification, the animal is allowed free access to the feed trough and the amount of feed taken in on each visit to the trough is recorded automatically.
The system thus determines all visits of each cow to the feed trough, the respective feed intake and the duration of the respective visit. The feed troughs were filled once a day at about 06.30 hours in the morning with an amount of about 70 kg of feed, after the residual feed of the previous day had been removed. During the morning milking, the feed troughs were closed for cleaning for a period of 20 to 30 minutes.
The milk yield was determined individually during each milking process and recorded by the Herd Management Software DairyPlan C21 (GEA Farm Technologies, Boenen, Germany). The cows were milked twice daily at 05.00 hours in the morning and 15.30 hours in the afternoon. Fresh water was freely available at all times.
Every Monday, after each milking, milk samples were taken and, for each cow, the milk composition (fat, protein, somatic cell count) was determined. The energy-corrected milk value (ECM) was determined according to the following equation: […]
All of the cows received a total mixed ration (TMR) (table 2) having a calculated mean daily feed intake of 22 kg of dry matter (DM). Trans-hex-2-enal and hexanal were added to the TMR and thus fed by a premix with wheat bran (trans-hex-2-enal/wheat bran for group A and hexanal/wheat bran for group B).
Samples of the TMR were withdrawn daily from each of the rations, combined to form a weekly sample and frozen until determination of the DM content of the TMRs. Samples of all feed components were taken every 14 days, frozen and pooled over the entire feeding trial up until laboratory analysis.
A standard model for statistical analysis using all parameters was adapted to the weekly data. This is a general, linear, mixed model with the cow as a chance effect and containing the following co-variables:
For the treatment effect, an “overall” P value was presented, and also a P value for the differences between the groups, which were tested both adapted and also non-adapted by means of the Tukey test.

SMILES: CCCCCC=O [Hexanal, hexanal]
- BFT (Back Fat Thickness): 0.92 cm
- MUN (milk-urea-nitrogen): 241 mg/L
- Body weight: 653 kg

SMILES: CCC/C=C/C=O [Trans-hex-2-enal]
- BFT (Back Fat Thickness): 0.93 cm
- MUN (milk-urea-nitrogen): 236 mg/L
- Body weight: 671 kg
